# Measurements reported in PubChem BioAssay AID2685 (National Center for Advancing Translational Sciences (NCATS), 2010).
# This is one part of the list. Further columns of the screen follow, without active or inactive calls. Most of these compounds were active or inconclusive in the main read-out, so they are no random draw. The note in brackets gives the kind of curve behind each potency; many fits are weak.
# Assay: qHTS Assay for Lipid Storage Modulators in Drosophila S3 Cells;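 for cell number change: cells counted by Cell Tracker Red CMTPX staining in the red channel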
# Details: BODIPY lipid droplet fluorescence, 18-24 h; for cell number change: measured here: cell count max response, cells fed with added oleic acid
# Procedure, shortened: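 Drosophila S3 cells got compounds at several concentrations plus oleic acid (400 uM solution). Laser-scanning cytometry with 488 nm excitation read lipid droplets at 500-530 nm and cells at 575-640 nm. Percent activity was relative to 20 uM Triacsin C.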
# [1] = measured here: lipid fluorescence (Fed channel) AC50, cells fed with added oleic acid
# [2] = measured here: cell number channel AC50, cells fed with added oleic acid
Structure (SMILES),cell number change [%],AC50 [1],AC50 [2]
CC(C)CCNC(=O)/C=C/c1ccc(Br)cc1,24.1,"8.2 µM [rising, partial curve, poor fit]",–
Cc1ccc(CSc2nnc(-c3cccc(S(=O)(=O)N4CCOCC4)c3)n2CC(C)C)cc1,-100,–,"29.1 µM [falling, single point]"
CC(NC(=O)COC(=O)c1ccc(CO)cc1)C1CC2CCC1C2 (configuration not stated),18.7,"3.26 µM [falling, partial curve]",–
Fc1ccc(NCc2ccccc2F)cc1Cl,-39.1,"29.1 µM [falling, single point]","20.6 µM [falling, single point]"
Cc1c(CCO)c(=O)[nH]n1C(=O)c1ccc(F)cc1,-1.32,"0.82 µM [rising, full curve, poor fit]",–
CN(C)S(=O)(=O)n1cnc(-c2ccccc2)c1-c1ccccc1,–,"4.11 µM [rising, partial curve]","2.59 µM [rising, partial curve]"
COc1ccc(/C=N/N2CCN(C)CC2)c(OC)c1OC,-47.9,"18.4 µM [falling, partial curve]","23.1 µM [falling, partial curve]"
CC(C)CCn1c(SCc2ccc(Cl)cc2)nc2c1c(=O)[nH]c(=O)n2C,-8.14,"0.058 µM [falling, partial curve, poor fit]",–
Cc1nonc1NC(=O)CSc1nnc(-c2ccoc2C)n1C,-20.2,"0.82 µM [falling, single point]",–
CCCCc1ccc(-n2nnnc2SCC(=O)Nc2cc(OC)c([N+](=O)[O-])cc2C)cc1,31.5,"2.59 µM [rising, partial curve]","1.84 µM [rising, full curve]"
CCOc1ccc(C2=Nn3c(nnc3-c3ccc(OC)cc3)SC2)cc1,-1.36,–,–
COc1ccc2cc(CCNC(=O)C3CCCC3)c(=O)[nH]c2c1,136,"2.59 µM [rising, partial curve]","4.61 µM [rising, partial curve]"
COc1cc(C(=O)NC2CCCc3ccccc32)cc(OC)c1C (configuration not stated),8.26,–,–
CCOC(=O)N1CCN(C(=O)CSCC(=O)Nc2nc(-c3ccc4c(c3)OCO4)cs2)CC1,-22,"18.4 µM [falling, single point]",–
O=C(O)C1C(c2ccccc2)C(C(=O)N2CCOCC2)C1c1ccccc1 (configuration not stated),-1.41,"0.259 µM [falling, full curve, poor fit]",–
Cc1ccccc1CC1(CO)CCCN(C(=O)Cc2c(F)ccc(F)c2F)C1 (configuration not stated),-28,"29.1 µM [falling, single point]",–
CC1SC(=NC(=O)c2ccncc2)NC1=O (configuration not stated),3,–,–
O=C(NCCNc1ccc([N+](=O)[O-])cc1Cl)c1ccccc1F,-24.3,–,–
O=C(c1ccc(CSc2ccc(Cl)cc2)cc1)N1CCOCC1,-50.3,–,"5.17 µM [falling, partial curve, poor fit]"
CCCCC(=O)Nc1cc(-c2nc3ncccc3o2)ccc1C,3.44,–,–
CC1CN(C(=O)CN2C(=O)c3ccccc3C2=O)CC(C)O1 (configuration not stated),–,"3.66 µM [falling, full curve]",–

Structure (SMILES),cell number change [%],AC50 [1],AC50 [2]
O=C(C1CCCCN1S(=O)(=O)c1ccccc1)N1CCN(C(c2ccccc2)c2ccccc2)CC1 (configuration not stated),-15.1,"0.0103 µM [rising, full curve, poor fit]",–
Cc1cc(C)nc(N2CCC(C(=O)NC3CC3)CC2)n1,–,"0.82 µM [falling, full curve]",–
COc1ccc(NC(=O)C2CC(c3ccc(OC)c(OC)c3)=NO2)cc1OC (configuration not stated),24.7,"29.1 µM [rising, single point]",–
O=C(NNC(=O)C12CC3CC(CC(C3)C1)C2)c1ccccc1F,18.3,"0.82 µM [rising, full curve, poor fit]",–
CC(C)c1nnc(NC(=O)CCCC(=O)O)s1,-80.5,"23.1 µM [falling, partial curve]","29.1 µM [falling, partial curve]"
CC(=O)N1CCN(c2ccc([N+](=O)[O-])c(-n3nc(C)cc3C)c2)CC1,–,"2.91 µM [falling, partial curve]",–
Cc1ccc(C2=NOC(=O)/C2=C\c2ccc(C)o2)cc1,-9.11,"29.1 µM [falling, single point]",–
O=c1c(Cc2ccccc2)c(O)ccn1C1CCCCCCC1,-24.2,"39.8 µM [falling, partial curve, poor fit]",–
COc1ccc(/C=N/OCC(=O)Nc2nc3ccccc3s2)cc1OC,18.9,–,–
CCn1cnc2c1c(=O)n(CC(=O)N1CCc3ccccc31)c(=O)n2Cc1ccccc1,17.9,–,–
Cc1onc(-c2ccccc2)c1C(=O)N/N=C/c1cccc(O)c1,6.83,"16.4 µM [rising, single point]",–
COc1ccc(CN2C(=O)c3cccnc3C2=O)cc1S(=O)(=O)NCc1ccco1,1.65,–,–
CC(=O)Nc1ccc(Nc2nc(Cl)nc(Nc3ccc(NC(C)=O)cc3)n2)cc1,15.3,"16.4 µM [rising, single point]",–
Cc1c(Cl)c([N+](=O)[O-])nn1CC(=O)N1CCCC1,23.8,"4.11 µM [rising, single point]","3.66 µM [rising, single point]"
Cc1ccc(NC(=O)COC(=O)c2ccccc2Nc2ccccc2)cc1,-42,"0.116 µM [falling, full curve, poor fit]","8.2 µM [falling, partial curve, poor fit]"
CCOCCCNCc1cc(Cl)ccc1OCC,–,"0.58 µM [falling, single point]",–
O=C(CCSc1nc2ccccc2s1)N/N=C/c1c(O)ccc2ccccc12,100,"23.1 µM [falling, partial curve]","29.1 µM [rising, single point]"
Cc1sc2nc(CSCC(=O)N3CC(C)OC(C)C3)[nH]c(=O)c2c1C (configuration not stated),-7.48,"7.31 µM [rising, partial curve]",–
CN(C)/C=C/C(=O)c1c(F)cccc1F,-18.2,–,–
CC1CC(C)CN(C(=O)CCNS(=O)(=O)c2cccs2)C1 (configuration not stated),4.79,"2.06 µM [rising, single point]",–
CC1(NC(=O)Cc2c(Cl)cccc2Cl)CCS(=O)(=O)C1 (configuration not stated),-15.2,"6.51 µM [falling, single point]","7.31 µM [falling, single point]"

Structure (SMILES),cell number change [%],AC50 [1],AC50 [2]
COc1ccc(CNCC(O)(c2ccc(F)cc2)c2ccc(F)cc2)cc1,-60.9,"23.1 µM [falling, single point]","29.1 µM [falling, single point]"
CCOc1ccc(NC(=O)NNC(=O)c2cccnc2)cc1,50.8,–,"13 µM [rising, partial curve, poor fit]"
CCOC(=O)C1=c2s/c(=C\c3ccncc3)c(=O)n2C(N)=C(C(=O)OC)C1c1ccncc1 (configuration not stated),50,"18.4 µM [rising, single point]","20.6 µM [rising, single point]"
COc1ccc(O[C@H]2C=C[C@@H](c3ccccc3)O[C@@H]2COC(=O)CC/C(C)=N/O[C@@H](C)CN2CCCCc3nc(C)c(C)cc32)cc1,-14.6,"5.8 µM [falling, partial curve, poor fit]",–
CCN(CC)S(=O)(=O)c1cccc(-c2nnc(SCc3nnc(-c4ccccc4)o3)n2C)c1,11.8,"0.82 µM [rising, full curve]",–
CCN1CCN(C2CCN(C(C)=O)CC2)CC1,-13.7,–,–
COC(=O)C(NNc1ccc(F)cc1)(NC(=O)c1ccccc1)C(F)(F)F (configuration not stated),-2.7,–,"2.31 µM [rising, single point]"
COCCOC(=O)C1=C(C)N=C2SCCC(=O)N2C1c1ccc(C(=O)OC)cc1 (configuration not stated),10.3,–,–
O=C(CN1CCCC1)Nc1ccc(OC(F)(F)F)cc1,-2.93,"0.651 µM [falling, single point]",–
COc1ccc(C2C(C(C)=O)=C(O)C(=O)N2CCc2ccccc2)c(OC)c1 (configuration not stated),24.4,"25.9 µM [falling, partial curve]",–
COc1ccc(NC(=O)c2c(NC(=O)CNCc3ccco3)sc3c2CCC3)c(OC)c1,–,"0.58 µM [rising, single point]","6.51 µM [rising, single point]"
CC1(c2ccc(OC(F)F)cc2)NC(=O)N(CC(=O)Nc2ccccc2)C1=O (configuration not stated),-23.7,–,–
CC(=O)N1c2ccccc2Nc2ccccc21,13.6,"8.2 µM [rising, single point]",–
CCCSc1ncnc2sc(C)c(C)c12,-4.78,"32.6 µM [falling, single point]",–
COc1cc(F)cc(C2=CC(=O)C[C@H](c3ccc(F)cc3)C2)c1,2.65,"0.00411 µM [rising, full curve, poor fit]",–
O=C1Nc2ccccc2/C1=C/c1ccc([N+](=O)[O-])cc1,-24.6,–,–
Cc1cccc(CS(=O)(=O)Cc2ccc(C(=O)NC3CCCC3)o2)c1,-3.79,–,–
O=S(=O)(NC1CCc2ccccc21)c1ccc(S(=O)(=O)N2CCCC2)cc1 (configuration not stated),22.5,"6.51 µM [rising, single point]",–
COc1cccc2cc(C(=O)C3=C(O)C(=O)N(c4cc(C)on4)C3c3cccs3)oc12 (configuration not stated),34.4,–,"35.5 µM [rising, single point]"
CCN1CCN(c2ccc(S(=O)(=O)N3CCCCC3)cc2NC(=O)Cc2ccccc2F)CC1,44.2,–,"13 µM [rising, single point]"

# Sorted by length of the SMILES (rising): part of the list above.
Structure (SMILES),cell number change [%],AC50 [1],AC50 [2]
O=C(CN1CCCC1)Nc1ccc(OC(F)(F)F)cc1,-2.93,"0.651 µM [falling, single point]",–
COc1ccc(NC(=O)c2c(NC(=O)CNCc3ccco3)sc3c2CCC3)c(OC)c1,–,"0.58 µM [rising, single point]","6.51 µM [rising, single point]"
COc1cccc2cc(C(=O)C3=C(O)C(=O)N(c4cc(C)on4)C3c3cccs3)oc12 (configuration not stated),34.4,–,"35.5 µM [rising, single point]"
